Assay results published in PubChem BioAssay AID901 (National Center for Advancing Translational Sciences (NCATS), 2007).
This is one part of the list. Shown are side measurements of this screen, not its main read-out; they come without a call. The list favours compounds with an active or inconclusive main result. Potencies come from curve fits of mixed quality, noted in brackets.

Assay: qHTS Assay for Identifying the Cell-Membrane Permeable IMPase Inhibitors
Details: CHO-M1 cells, IP1 accumulation, HTRF TR-FRET ratio; measured here: donor channel 620 nm AC50

Row | SMILES | AC50
1 | COc1ccc(S(=O)(=O)Nc2ccccn2)c(C)c1C | 12.6 µM [falling, partial curve, poor fit]
2 | Cc1cc(C(F)F)n2nc(C(=O)Nc3cccc(Cl)c3C)nc2n1 | 5.62 µM [falling, full curve]
3 | O=Nc1c2nc3ccccc3n(O)c-2c2ccccc12 | 0.158 µM [falling, partial curve]
4 | Cc1nc2ccccc2n2c(-c3ccccc3)c3c(=O)n(C)c(=O)n(C)c3c12 | 12.6 µM [falling, partial curve, poor fit]
5 | COc1cccc(NC(=O)COc2ccc(S(=O)(=O)NC(C)C)cc2)c1 | 0.158 µM [falling, full curve]
6 | CCOc1ccc(-n2c(=O)c3c(C)c(C)sc3n(CC(=O)NCc3ccco3)c2=O)cc1 | 1.58 µM [rising, full curve, poor fit]
7 | CCOc1cc(C2CC(=O)Nc3cc4c(cc32)OCCO4)ccc1O (stereo not given) | 0.00224 µM [rising, full curve, poor fit]
8 | N#Cc1c(-n2cccc2)cccc1-n1cccc1 | 2.51 µM [rising, full curve, poor fit]
9 | CCOc1ccccc1CNC(=O)C1CCN(c2nc3ccccc3o2)CC1 | 3.16 µM [rising, full curve]
10 | O=C(O)CCCC(=O)Nc1ccccc1Br | 5.01 µM [falling, single point]
11 | CN1CCC(N(C)C(=O)c2ccccc2Nc2ccc(SC(F)F)cc2)CC1 | 1.58 µM [rising, partial curve, poor fit]
12 | CCOC(=O)C1CCN(C2CC(=O)N(c3ccc(OCC)cc3)C2=O)CC1 (stereo not given) | 0.631 µM [falling, full curve]
13 | CCOC(=O)c1c(C)nc(-c2ccccc2)nc1NC(=O)CC | 0.316 µM [falling, full curve]
14 | Cc1cc2cc3c(cc2nc1SCC(=O)O)OCCO3 | 12.6 µM [rising, single point]
15 | CC(NC(=O)N(Cc1ccccc1)Cc1ccc2c(c1)OCO2)(C(F)(F)F)C(F)(F)F | 3.98 µM [falling, partial curve]
16 | Cc1ccc(OCC(=O)Nc2ccc(-c3nc4ccccc4o3)cc2)c(C)c1 | 31.6 µM [rising, single point]
17 | COc1cc2c(cc1NC(=O)C(C)Oc1ccccc1)oc1ccccc12 (stereo not given) | 0.00447 µM [falling, full curve, poor fit]
18 | Cn1cccc1C(=O)Nc1nccs1 | 0.01 µM [rising, full curve, poor fit]
19 | CC1(C)Cc2cccc(OCC(=O)N3CCN(S(=O)(=O)c4ccc(F)cc4)CC3)c2O1 | 0.501 µM [rising, full curve, poor fit]
20 | CCOc1cc(/C=C\c2[nH]c(=O)[nH]c(=O)c2[N+](=O)[O-])ccc1OC(C)CC (stereo not given) | 0.126 µM [falling, full curve, poor fit]
21 | CCn1cc(CNC(=O)c2cc(Cl)ccc2OC)c(C)n1 | 31.6 µM [falling, single point]
22 | Cc1ccc(Cn2c(N)c(S(=O)(=O)c3cccs3)c3nc4ccccc4nc32)cc1 | 31.6 µM [rising, partial curve, poor fit]

Two of the compounds above, as tab-separated lines.
Row	SMILES	AC50
9	CCOc1ccccc1CNC(=O)C1CCN(c2nc3ccccc3o2)CC1	3.16 µM [rising, full curve]
10	O=C(O)CCCC(=O)Nc1ccccc1Br	5.01 µM [falling, single point]

The listing continues:

Row | SMILES | AC50
23 | Cc1cccc(-n2c(SCC(=O)N3CCCC3)nc3n[nH]c(C)c3c2=N)c1 | 25.1 µM [rising, single point]
24 | C=C(C)Cn1c(C)cc(C)c(S(=O)(=O)c2ccccc2C)c1=O | 0.0631 µM [rising, full curve, poor fit]
25 | Cc1nn(C)c(C)c1C1Nc2ccccc2C(=O)N1O (stereo not given) | 0.794 µM [falling, full curve]
26 | Cc1cccc(NC(=O)C2CC(O)CN2C(=O)OCc2ccccc2)c1 (stereo not given) | 2 µM [falling, partial curve]
27 | COc1cnn(-c2ccccc2)c(=O)c1SCc1ccc(Cl)c(Cl)c1 | 3.16 µM [rising, full curve]
28 | COc1ccc(NC(C)=O)cc1NC(=O)CSc1nnc(-c2cccnc2)n1C | 2.51 µM [rising, partial curve]
29 | O=C(c1ccncc1)N(Cc1ccccc1)Cc1nc2ccccc2c(=O)[nH]1 | 1.12 µM [falling, full curve, poor fit]
30 | COc1ccc(C(=O)N2CCCC(c3nc(-c4cccs4)no3)C2)cc1OC (stereo not given) | 0.01 µM [rising, full curve, poor fit]
31 | Cc1ccc(N2CC(C(=O)N/N=C/c3cccc([N+](=O)[O-])c3)CC2=O)cc1 (stereo not given) | 5.62 µM [rising, single point]
32 | CCOC(=O)c1cc(C)n(-n2cnnc2)c1C | 0.02 µM [falling, full curve, poor fit]
33 | c1ccc(CCNc2nc3ccccc3n3nnnc23)cc1 | 6.31 µM [falling, single point]
34 | COc1ccc(Cc2nc3ccc(S(=O)(=O)N4CCOCC4)cc3[nH]2)cc1OC | 31.6 µM [rising, single point]
35 | CC(=O)CC1OC(=O)C(Br)=C1NCc1ccccc1 (stereo not given) | 0.0501 µM [rising, full curve, poor fit]
36 | COc1cc(NC(=O)c2cccc(F)c2)ccc1NC(=O)c1cc2ccccc2o1 | 35.5 µM [falling, single point]
37 | N#CCCSc1ncnc2c1oc1ccccc12 | 12.6 µM [rising, partial curve]
38 | O=C(OCc1nnc(-c2ccccc2)o1)c1ccc2c(c1)C(=O)N(CCc1ccccc1)C2=O | 31.6 µM [rising, single point]
39 | COC(=O)C(C(=O)OC)=C(/C=C/N(C)C)N(C)C | 0.0794 µM [falling, full curve]
40 | O=C(CN1C(=O)C2CC=CCC2C1=O)OCCN1C(=O)c2ccccc2C1=O (stereo not given) | 0.0631 µM [rising, full curve, poor fit]
41 | Cc1ccc(S(=O)(=O)NC(CC(=O)NCc2ccco2)c2ccco2)cc1 (stereo not given) | 1.26 µM [falling, single point]
42 | COc1nc(C)nc2c1ccc1ccccc12 | 0.2 µM [rising, single point]
43 | COc1cc(C(=O)Nc2ccc(NC(=O)c3ccc(Br)cc3)cc2)cc(OC)c1OC | 35.5 µM [rising, single point]
44 | Cc1ccn2c(NC(=O)c3cccs3)c(-c3ccccc3)nc2c1 | 0.112 µM [falling, full curve, poor fit]

Row | SMILES | AC50
45 | Cn1c(-c2ccc(-c3ccccc3)cc2)c[nH]c1=S | 6.31 µM [falling, full curve, poor fit]
46 | O=C(NCc1ccccc1Cl)c1csc2c1CCCCC2 | 10 µM [falling, partial curve, poor fit]
47 | O=C(CCCN1C(=O)c2ccccc2C1=O)Nc1ccccn1 | 0.158 µM [falling, full curve, poor fit]
48 | Cc1nc2sccn2c(=O)c1S(=O)(=O)NCc1ccccc1 | 3.16 µM [falling, partial curve, poor fit]
49 | CCOC(=O)C1CCN(CCC(=O)Nc2ccccc2Cl)CC1 | 31.6 µM [falling, single point]
50 | O=C(Nc1ccccc1)C12CC3CC(C1)CC(n1cnc([N+](=O)[O-])n1)(C3)C2 | 0.01 µM [rising, full curve, poor fit]
51 | COC1/C=C/OC2(C)Oc3c(C)c(O)c4c(O)c(c(/C=N/N5CCN(C)CC5)c(O)c4c3C2=O)NC(=O)/C(C)=C/C=C/C(C)C(O)C(C)C(O)C(C)C(OC(C)=O)C1C (stereo not given) | 31.6 µM [falling, partial curve, poor fit]
52 | CCOC(=O)CSc1nc2sc3c(c2c(=O)n1Cc1ccccc1)CC(C)CC3 (stereo not given) | 0.00224 µM [rising, full curve]
53 | O=C(O)c1ccc2cccc(Cl)c2c1O | 15.8 µM [rising, single point]
54 | CCn1nccc1C(=O)Nc1ccc(Cl)c(Cl)c1 | 0.0126 µM [falling, full curve]
55 | Cc1nnc(N2C(=O)C(O)=C(C(=O)c3ccco3)C2c2ccc(F)cc2)s1 (stereo not given) | 15.8 µM [rising, partial curve]
56 | CCCCOc1ccc(-c2cc(C(=O)NNC(=S)NCC)c3ccccc3n2)cc1 | 5.01 µM [falling, single point]
57 | O=C(CSc1nc(O)c(Cc2ccccc2F)c(=O)[nH]1)N1CCCCCC1 | 12.6 µM [falling, partial curve, poor fit]
58 | CC(=O)N[C@@H](Cc1c[nH]c2ccccc12)C(=O)OCc1cc(C(F)(F)F)cc(C(F)(F)F)c1 | 6.31 µM [falling, single point]
59 | Cc1ccc(C(=O)c2cn(-c3ccc(F)c(Cl)c3)nn2)cc1 | 0.631 µM [rising, partial curve]
60 | COc1ccc(Cl)cc1NC(=O)CSc1nc2ccccc2nc1N1CCCCC1 | 35.5 µM [rising, single point]
61 | COCCn1c(=NC(=O)c2ccco2)sc2cc(C(=O)OC)ccc21 | 35.5 µM [rising, partial curve, poor fit]
62 | CCN(CC)c1ncnc2scc(C3COc4ccccc4O3)c12 (stereo not given) | 20 µM [falling, partial curve, poor fit]
63 | CCOc1ccc(/C(O)=C2/C(=O)C(=O)N(CCOCCO)C2c2ccccn2)cc1 (stereo not given) | 20 µM [rising, partial curve]
64 | Cc1ccc(OCc2ccc(C(=O)Nc3nccs3)o2)cc1 | 3.16 µM [falling, single point]
65 | O=C(c1csc2c1CCCC2)N1CCN(c2cccc(C(F)(F)F)c2)CC1 | 31.6 µM [falling, partial curve, poor fit]

As entered above.
`CCn1nccc1C(=O)Nc1ccc(Cl)c(Cl)c1` | AC50: 0.0126 µM [falling, full curve]
`Cc1ccc(C(=O)c2cn(-c3ccc(F)c(Cl)c3)nn2)cc1` | AC50: 0.631 µM [rising, partial curve]
`CCCCOc1ccc(-c2cc(C(=O)NNC(=S)NCC)c3ccccc3n2)cc1` | AC50: 5.01 µM [falling, single point]
